This experiment concerns the target RECQL4 (human (endogenous in U2OS and HCT116)) (UniProt O94761). Briefly: affinity purification with mass spectrometry; RECQL4 immunoprecipitated from whole cell lysates of U2OS cells 10 min after 10 Gy IR; SDS-PAGE, mass spectrometry.

By UniProt entry, the sequences of proteins in these tests, tags left out.
UniProt P78527: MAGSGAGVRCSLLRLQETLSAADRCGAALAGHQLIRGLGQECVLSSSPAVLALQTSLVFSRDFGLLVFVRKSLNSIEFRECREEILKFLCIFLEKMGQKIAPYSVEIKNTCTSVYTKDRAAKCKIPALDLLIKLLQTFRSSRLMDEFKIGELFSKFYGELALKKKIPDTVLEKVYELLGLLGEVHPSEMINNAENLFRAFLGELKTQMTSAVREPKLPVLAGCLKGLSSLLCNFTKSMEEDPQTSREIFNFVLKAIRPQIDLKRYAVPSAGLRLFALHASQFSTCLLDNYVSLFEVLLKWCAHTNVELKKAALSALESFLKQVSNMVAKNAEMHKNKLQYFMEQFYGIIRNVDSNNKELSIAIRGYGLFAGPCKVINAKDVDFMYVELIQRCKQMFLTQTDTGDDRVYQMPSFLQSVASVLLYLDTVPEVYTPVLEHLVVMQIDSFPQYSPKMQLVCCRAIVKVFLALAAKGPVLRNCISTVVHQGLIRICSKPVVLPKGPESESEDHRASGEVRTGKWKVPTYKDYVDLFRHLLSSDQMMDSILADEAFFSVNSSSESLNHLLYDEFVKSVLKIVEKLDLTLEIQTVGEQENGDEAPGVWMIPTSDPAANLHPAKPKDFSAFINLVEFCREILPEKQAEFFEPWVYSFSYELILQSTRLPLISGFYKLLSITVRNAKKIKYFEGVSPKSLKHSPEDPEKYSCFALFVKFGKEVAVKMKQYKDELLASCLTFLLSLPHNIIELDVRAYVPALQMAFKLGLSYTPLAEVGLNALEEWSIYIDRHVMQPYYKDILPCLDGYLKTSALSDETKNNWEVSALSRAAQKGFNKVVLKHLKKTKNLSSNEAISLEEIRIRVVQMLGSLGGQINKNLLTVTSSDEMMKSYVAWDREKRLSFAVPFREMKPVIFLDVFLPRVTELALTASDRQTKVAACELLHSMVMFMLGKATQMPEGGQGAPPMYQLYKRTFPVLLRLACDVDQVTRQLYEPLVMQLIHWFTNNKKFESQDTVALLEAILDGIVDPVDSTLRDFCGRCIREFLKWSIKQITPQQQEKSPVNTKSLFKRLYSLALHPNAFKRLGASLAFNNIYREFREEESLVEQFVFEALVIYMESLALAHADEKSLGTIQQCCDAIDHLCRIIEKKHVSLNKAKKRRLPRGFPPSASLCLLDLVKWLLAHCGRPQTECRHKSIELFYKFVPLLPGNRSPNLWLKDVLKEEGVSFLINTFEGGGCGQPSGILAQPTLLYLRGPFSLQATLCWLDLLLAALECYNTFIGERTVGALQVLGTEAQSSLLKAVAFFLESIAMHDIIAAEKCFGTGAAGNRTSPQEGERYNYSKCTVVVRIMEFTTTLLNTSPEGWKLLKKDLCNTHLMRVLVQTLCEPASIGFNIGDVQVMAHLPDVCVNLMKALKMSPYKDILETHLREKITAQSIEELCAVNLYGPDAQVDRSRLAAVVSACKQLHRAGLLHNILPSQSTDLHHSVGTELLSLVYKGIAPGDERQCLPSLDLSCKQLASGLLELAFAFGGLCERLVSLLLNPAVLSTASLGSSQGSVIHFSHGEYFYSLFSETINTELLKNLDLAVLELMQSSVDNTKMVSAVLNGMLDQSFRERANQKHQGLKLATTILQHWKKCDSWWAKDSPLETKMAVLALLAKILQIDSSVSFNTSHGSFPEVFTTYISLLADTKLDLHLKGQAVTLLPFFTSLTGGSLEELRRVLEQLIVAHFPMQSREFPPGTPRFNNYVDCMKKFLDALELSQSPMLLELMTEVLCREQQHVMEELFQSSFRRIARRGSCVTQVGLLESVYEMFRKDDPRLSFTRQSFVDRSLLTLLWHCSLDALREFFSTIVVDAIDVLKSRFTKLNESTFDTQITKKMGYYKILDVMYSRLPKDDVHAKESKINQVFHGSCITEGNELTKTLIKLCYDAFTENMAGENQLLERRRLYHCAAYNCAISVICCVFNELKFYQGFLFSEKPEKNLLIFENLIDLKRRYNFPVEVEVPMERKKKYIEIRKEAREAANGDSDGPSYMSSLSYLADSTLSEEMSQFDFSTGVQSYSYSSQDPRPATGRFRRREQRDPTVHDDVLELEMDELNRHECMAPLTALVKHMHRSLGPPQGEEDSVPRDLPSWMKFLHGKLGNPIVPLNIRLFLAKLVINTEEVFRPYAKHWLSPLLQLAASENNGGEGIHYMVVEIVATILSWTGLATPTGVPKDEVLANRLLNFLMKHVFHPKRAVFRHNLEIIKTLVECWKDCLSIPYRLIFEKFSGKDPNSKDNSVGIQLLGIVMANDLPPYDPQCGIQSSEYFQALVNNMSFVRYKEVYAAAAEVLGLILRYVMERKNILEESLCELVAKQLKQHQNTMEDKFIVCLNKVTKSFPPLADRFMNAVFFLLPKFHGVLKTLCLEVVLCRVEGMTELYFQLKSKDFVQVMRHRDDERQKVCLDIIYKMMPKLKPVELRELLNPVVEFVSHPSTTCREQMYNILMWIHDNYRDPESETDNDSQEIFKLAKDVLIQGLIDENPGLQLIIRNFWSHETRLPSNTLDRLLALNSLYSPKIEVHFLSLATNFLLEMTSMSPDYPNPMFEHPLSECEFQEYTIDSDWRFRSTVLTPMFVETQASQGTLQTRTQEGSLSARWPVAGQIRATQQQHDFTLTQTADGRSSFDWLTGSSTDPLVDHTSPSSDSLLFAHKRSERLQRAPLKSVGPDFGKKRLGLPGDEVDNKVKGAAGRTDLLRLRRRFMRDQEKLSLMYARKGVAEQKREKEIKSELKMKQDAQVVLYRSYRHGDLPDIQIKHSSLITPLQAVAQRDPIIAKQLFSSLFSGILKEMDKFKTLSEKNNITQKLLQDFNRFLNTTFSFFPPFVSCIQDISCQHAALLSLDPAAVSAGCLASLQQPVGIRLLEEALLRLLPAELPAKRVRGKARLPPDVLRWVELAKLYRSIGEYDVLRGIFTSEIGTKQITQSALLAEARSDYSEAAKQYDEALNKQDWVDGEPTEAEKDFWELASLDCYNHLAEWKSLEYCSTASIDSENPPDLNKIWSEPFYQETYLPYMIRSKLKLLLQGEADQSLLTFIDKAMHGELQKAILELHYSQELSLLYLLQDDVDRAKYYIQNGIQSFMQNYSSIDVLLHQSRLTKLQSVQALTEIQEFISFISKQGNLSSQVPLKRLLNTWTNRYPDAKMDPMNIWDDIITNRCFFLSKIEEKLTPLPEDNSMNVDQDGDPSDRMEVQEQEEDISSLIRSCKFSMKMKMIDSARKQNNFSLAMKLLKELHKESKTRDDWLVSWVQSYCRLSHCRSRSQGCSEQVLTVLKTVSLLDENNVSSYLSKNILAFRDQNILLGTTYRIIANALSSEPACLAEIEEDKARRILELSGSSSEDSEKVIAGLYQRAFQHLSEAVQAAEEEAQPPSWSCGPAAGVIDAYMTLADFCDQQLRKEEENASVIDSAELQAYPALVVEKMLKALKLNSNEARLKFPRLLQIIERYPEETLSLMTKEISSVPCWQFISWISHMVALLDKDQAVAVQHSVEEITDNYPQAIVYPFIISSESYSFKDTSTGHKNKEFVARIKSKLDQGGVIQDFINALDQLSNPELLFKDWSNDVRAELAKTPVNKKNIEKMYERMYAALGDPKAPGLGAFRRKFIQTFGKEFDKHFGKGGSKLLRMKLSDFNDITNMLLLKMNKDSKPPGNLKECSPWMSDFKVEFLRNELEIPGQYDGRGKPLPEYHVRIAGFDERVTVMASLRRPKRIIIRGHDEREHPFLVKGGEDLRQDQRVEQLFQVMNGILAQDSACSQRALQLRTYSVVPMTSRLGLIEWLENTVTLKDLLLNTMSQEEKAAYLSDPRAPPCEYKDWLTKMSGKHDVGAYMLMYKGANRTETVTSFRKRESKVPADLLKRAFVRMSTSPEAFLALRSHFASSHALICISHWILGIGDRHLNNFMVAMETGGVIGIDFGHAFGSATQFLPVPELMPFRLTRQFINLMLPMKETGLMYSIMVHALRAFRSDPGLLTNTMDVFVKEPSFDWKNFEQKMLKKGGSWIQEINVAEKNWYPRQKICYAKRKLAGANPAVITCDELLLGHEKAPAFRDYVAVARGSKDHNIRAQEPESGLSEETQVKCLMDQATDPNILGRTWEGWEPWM

These are yes or no findings as the source states them, for the method shown. In cells and extracts the contact can be indirect. These calls come from enrichment with a bait or labelling near it, and not all partners need be listed.

DNA-PKcs (from UniProt P78527 1-4128): the binding result is “binds”.

The values are drawn from paper PMC9178012.
